Results are given in words; binding and its absence hold for the method and conditions named. For some of these results: Binding can be weak; no strength is given.
Key:
Assay in all cases: two-hybrid; yeast strain pJ69-4A; Gal4-AD fusions (pGAD-C1) and Gal4-BD fusions (pGBDU-C1); clones spotted as 1/5 dilutions on synthetic complete medium lacking leucine, uracil and histidine; 5 days at 28°C
[1] = target: T1, Deinococcus radiodurans RecA, full length (D. radiodurans) (UniProt P42443)
T1 sequence: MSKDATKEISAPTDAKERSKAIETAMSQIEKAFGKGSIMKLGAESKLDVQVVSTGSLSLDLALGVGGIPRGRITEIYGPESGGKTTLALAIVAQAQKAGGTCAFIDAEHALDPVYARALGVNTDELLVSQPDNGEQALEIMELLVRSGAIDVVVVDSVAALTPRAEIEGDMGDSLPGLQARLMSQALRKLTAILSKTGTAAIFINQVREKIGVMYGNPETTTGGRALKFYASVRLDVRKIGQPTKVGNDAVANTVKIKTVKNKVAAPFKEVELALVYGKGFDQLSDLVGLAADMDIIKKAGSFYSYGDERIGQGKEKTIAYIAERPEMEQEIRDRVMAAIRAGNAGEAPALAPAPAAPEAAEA

[2] = target: T2, Deinococcus radiodurans RecA-ΔN27 (D. radiodurans) (UniProt P42443)
T2 sequence: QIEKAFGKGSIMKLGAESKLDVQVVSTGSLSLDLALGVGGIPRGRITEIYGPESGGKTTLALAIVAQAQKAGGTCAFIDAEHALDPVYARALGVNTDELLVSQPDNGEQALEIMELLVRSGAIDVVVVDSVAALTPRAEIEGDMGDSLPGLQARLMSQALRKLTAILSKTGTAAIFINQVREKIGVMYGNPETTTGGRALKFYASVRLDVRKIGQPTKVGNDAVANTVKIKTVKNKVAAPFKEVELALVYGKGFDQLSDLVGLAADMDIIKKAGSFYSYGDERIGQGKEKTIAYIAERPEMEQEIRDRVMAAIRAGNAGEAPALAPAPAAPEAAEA

[3] = target: Deinococcus radiodurans DprA (D. radiodurans) (UniProt Q9RY31)

Deinococcus radiodurans DprA (from UniProt Q9RY31)
binding [1]: no binding
binding [2]: binds

B1: Deinococcus radiodurans DdrB (protein, UniProt Q9RY80 1-188)
chain: MLQIEFITDLGARVTVNVEHESRLLDVQRHYGRLGWTSGEIPSGGYQFPIENEADFDWSLIGARKWKSPEGEELVIHRGHAYRRRELEAVDSRKLKLPAAIKYSRGAKVSDPQHVREKADGDIEYVSLAIFRGGKRQERYAVPGGAAGNGQGRPAPQGQPAQARPQATAARPAARPPVQPGQEEETPF
binding [3]: no binding

B2: Deinococcus radiodurans RecO (protein, UniProt Q9RW50 1-244)
chain: MRSRTANRSGIVIRRRVTPAGDIIVTLLTPQGKLKAIARGGVKGPLSSSLNLFHHVGVQVYQGPHNDLASVKQAVLEGALPTLAEPERYAFAHLMAEFADALFQEGEFSEQAFDLFAASLRGVAHQPDPEWVALVMSYKLLGLAGVIPQTARCARCGAPDPEHPDPLGGQLLCSKCAALPPYPPAVLDFLRHAVRRTVRASFEQPVPSADRPALWRALEKFVTVQVGGVHSWRQLVPSGVPVLS
binding [3]: no binding
